The subject of the experiment is P388 leukemia ip, CD2F1 mice, survival T/C. As to the kind of experiment: NCI In Vivo Anticancer Drug Screen. Data for tumor model P388 Leukemia (intraperitoneal) in CD2F1 (CDF1) mice. As to conditions: T/C endpoint: median survival time, higher T/C = longer survival.
Where [1] appears, read: dose: 100.0 mg/kg/injection, schedule: Q01DX009 (ip), vehicle: saline with Tween-80.
[2] abbreviates: dose: 100.0 mg/kg/injection, schedule: Q01DX005 (ip), vehicle: saline with Tween-80.
The mark [3] stands for this setting: dose: 200.0 mg/kg/injection, schedule: Q01DX005 (ip), vehicle: saline with Tween-80.
The mark [4] stands for this setting: dose: 50.0 mg/kg/injection, schedule: Q01DX009 (ip), vehicle: saline.
Setting [5] is: dose: 100.0 mg/kg/injection, schedule: Q01DX009 (ip), vehicle: saline.
Setting [6] is: dose: 200.0 mg/kg/injection, schedule: Q01DX009 (ip), vehicle: saline.
The mark [7] stands for this setting: dose: 50.0 mg/kg/injection, schedule: Q01DX009 (ip), vehicle: water.
[8] abbreviates: dose: 50.0 mg/kg/injection, schedule: Q01DX005 (ip), vehicle: Klucel (hydroxypropylcellulose) (HPC).

This note sets out measurements from PubChem BioAssay AID330 (DTP/NCI, 2004).

The list is a part of this screen's results and no random one: it gathers tests that were run many times, whatever their T/C, doses with no T/C, and many T/C values between a quarter and a half above the control. Further doses and runs are listed elsewhere. T/C: endpoint of the treated group in % of that of the vehicle group. Some doses have a count of surviving animals in place of a T/C: the source files T/C as zero there, which appears to mark a toxic dose or a test without result, not a measured value. Some doses without a T/C left all or most animals alive at the check, yet need not have been tolerated: survival well below the control is almost never listed, so the zero probably covers shortened survival too. Survivors were counted at the toxicity check, usually on the fifth day, unless a day is given; later deaths do not show. Schedule codes are those of the source, read here as Q, the interval in days (D) or hours (H), X, the number of doses. Some entries were tested several times; the results are listed from low to high. For survival time, the PubChem record calls one and a half times the control and up active, and a quarter to a half above the control has no call in these data; cut-offs in other NCI protocols can differ. Some T/C values are followed by the survivors on the day toxicity was checked, most often the fifth; without a count, all were alive then.

Consider `CCCCCCC(/C=C/c1ccc(Cl)c(Cl)c1)=N\Nc1ccc(Cl)c(Cl)c1`, for which the survivor count under setting [1] is 6 of 6.
As to `Cn1cc(N)c2ccccc2c1=O`, the survivor count is given as 0 of 6 under setting [2] and 0 of 6 under setting [3].
For the molecule `Cc1c2ccnc(C(N)=O)c2c(C)c2c1[nH]c1ccccc12`, the T/C is, setting by setting: (dose: 200.0 mg/kg/injection, schedule: Q04DX002 (ip), vehicle: distilled water + Tween-80) 126 % of control; (dose: 400.0 mg/kg/injection, schedule: Q04DX002 (ip), vehicle: distilled water + Tween-80) 131 % of control.
Turning to `COc1ccc(CC(C)NCC(O)c2ccc(O)c(NC=O)c2)cc1` (stereo not given), the survivor count runs as follows: under setting [4], 5 of 6; under setting [5], 5 of 6; (dose: 100.0 mg/kg/injection, schedule: Q01DX009 (ip), vehicle: suspension in saline) 5 of 6; under setting [6], 5 of 6.
Turning to `C=C1C(OC(=O)c2ccccc2)C2[C@@H](OC(=O)CC)[C@@H](C)C[C@]2(O)C(=O)[C@@H](C)/C=C/C(C)(C)C(=O)C(O)[C@H]1OC(=O)C(C)C` (stereo not given in full), the survivor count (dose: 240.0 mg/kg/injection, schedule: Q01DX005 (ip), vehicle: saline with Tween-80) is 1 of 6.
On to `Nc1nc(SCc2ccccn2)c2[nH]cnc2n1`, for which the T/C reads like this: (dose: 100.0 mg/kg/injection, schedule: Q04DX003 (ip), vehicle: Klucel (hydroxypropylcellulose) (HPC)) 131 % of control; (dose: 150.0 mg/kg/injection, schedule: Q04DX003 (ip), vehicle: Klucel (hydroxypropylcellulose) (HPC)) 145 % of control; (dose: 225.0 mg/kg/injection, schedule: Q04DX003 (ip), vehicle: Klucel (hydroxypropylcellulose) (HPC)) 136 % of control [5 of 6 alive].
As for `CC(=O)OC1CC2CC1C1C3C=CC(C3)C21` (stereo not given), the survivor count under setting [1] is 3 of 6.
Turning to `CCN(CC)Cc1cc(C(CC(=O)c2ccccc2)S(=O)(=O)c2ccc(C)cc2)ccc1O` (stereo not given), the survivor count (dose: 50.0 mg/kg/injection, schedule: Q01DX009 (ip), vehicle: saline with Tween-80) is 5 of 6; the survivor count under setting [5] is 0 of 6; the survivor count under setting [6] was 0 of 6.
For the molecule `C[C@H]1C(=O)CCC2[C@]3(C)CCC4(CO)[C@@H]5CC(C)(C)C(=O)C[C@]5(C)CC[C@]4(C)C3CC[C@@]21C` (stereo not given in full), under “dose: 62.0 mg/kg/injection, schedule: Q01DX005 (ip), vehicle: Klucel (hydroxypropylcellulose) (HPC)”, the survivor count was 6 of 6.
In the case of `CCOC(=O)c1cnc(-c2ccccc2)n(-c2ccccc2)c1=O`, under “dose: 200.0 mg/kg/injection, schedule: Q01DX005 (ip), vehicle: Klucel (hydroxypropylcellulose) (HPC)”, the survivor count is 0 of 6.
Consider `Cc1cc(C)c(COCc2cc(C)c(C)cc2C)cc1C`, for which the survivor count under setting [7] is recorded as 6 of 6.
On to `CNC(=O)OCC1=C(COC(=O)NC)C2OC1C(C(=O)OC)=C2c1ccc(Cl)cc1` (stereo not given), for which the survivor count (dose: 25.0 mg/kg/injection, schedule: Q01DX009 (ip), vehicle: distilled water + Tween-80) is 6 of 6.
Take `CC(C)Cn1c(Cl)c(C(=O)O)c2ccccc21`: under “dose: 400.0 mg/kg/injection, schedule: Q04DX002 (ip), vehicle: Klucel (hydroxypropylcellulose) (HPC)”, the survivor count was 6 of 6.
As for `Cc1cc(N=C2C=CC(=[N+](C)C)C=C2)c(N)cc1N`, the survivor count is, setting by setting: under setting [1], 0 of 6; (dose: 200.0 mg/kg/injection, schedule: Q01DX009 (ip), vehicle: saline with Tween-80) 0 of 6.
As to `CCCCN(CCCC)CC(C)(C)C(O)c1ccc(OC)c2ccccc12` (stereo not given), the survivor count is given as 2 of 5 under setting [2] and 0 of 5 under setting [3].
Regarding `CN1C(=O)Cc2ccccc2C1=O`, the survivor count under setting [6] is on record as 4 of 6.
In the case of `CC(O)C([NH-])C(=O)O.CC([NH-])C(=O)O.[Cu+2]` (stereo not given), the survivor count was 0 of 6 under setting [4], 0 of 6 under setting [5] and 0 of 6 under setting [6].
On to `COc1cccc2c1C(=O)c1c(O)c3c(c(O)c1C2=O)C[C@@](O)(/C(C)=N/NS(C)(=O)=O)C[C@@H]3OC1CC(N)C(O)C(C)O1` (stereo not given in full), for which the T/C reads like this: (dose: 6.25 mg/kg/injection, schedule: Q01DX009 (ip), vehicle: saline) 136 % of control; (dose: 12.5 mg/kg/injection, schedule: Q01DX009 (ip), vehicle: saline) 148 % of control. The survivor count was 6 of 6 under setting [7]; 0 of 6 and 1 of 6 (dose: 100.0 mg/kg/injection, schedule: Q01DX009 (ip), vehicle: water); 0 of 6 (dose: 200.0 mg/kg/injection, schedule: Q01DX009 (ip), vehicle: water).
`CCCCc1ccc2nc(C)cc(N/N=C/c3ccc(OC)c4ccccc34)c2c1`: the survivor count under setting [8] is 6 of 6 and the survivor count (dose: 100.0 mg/kg/injection, schedule: Q01DX005 (ip), vehicle: Klucel (hydroxypropylcellulose) (HPC)) is listed as 6 of 6.
As for `Cc1oc2ccccc2c(=O)c1CN(CCO)CCO`, the survivor count (dose: 240.0 mg/kg/injection, schedule: Q01DX005 (ip), vehicle: saline) is 0 of 6.
In the case of `COC(=O)/C=C(\C(=O)OC)C1=C(N2CCCC2)CC(C)(C)CC1=O`, the survivor count under setting [8] is 6 of 6.
Regarding `O=[N+]([O-])c1c(Sc2ccccc2)ncnc1Sc1ccccc1`, the survivor count reads like this: under setting [5], 6 of 6; under setting [6], 6 of 6.
As to `O=C1c2cccc3cc([N+](=O)[O-])cc(c23)C(=O)N1CCCNCCNCCCN1C(=O)c2cccc3cc([N+](=O)[O-])cc(c23)C1=O`, the T/C was 129 % of control (dose: 25.0 mg/kg/injection, schedule: Q01DX005 (ip), vehicle: saline with Tween-80) and 147 % of control (dose: 50.0 mg/kg/injection, schedule: Q01DX005 (ip), vehicle: saline with Tween-80). Also, the survivor count is, setting by setting: under setting [2], 3 of 6; under setting [3], 1 of 6.
